The target of the experiment is T1, Flag-GSDMD (UniProt P57764).
T1 sequence: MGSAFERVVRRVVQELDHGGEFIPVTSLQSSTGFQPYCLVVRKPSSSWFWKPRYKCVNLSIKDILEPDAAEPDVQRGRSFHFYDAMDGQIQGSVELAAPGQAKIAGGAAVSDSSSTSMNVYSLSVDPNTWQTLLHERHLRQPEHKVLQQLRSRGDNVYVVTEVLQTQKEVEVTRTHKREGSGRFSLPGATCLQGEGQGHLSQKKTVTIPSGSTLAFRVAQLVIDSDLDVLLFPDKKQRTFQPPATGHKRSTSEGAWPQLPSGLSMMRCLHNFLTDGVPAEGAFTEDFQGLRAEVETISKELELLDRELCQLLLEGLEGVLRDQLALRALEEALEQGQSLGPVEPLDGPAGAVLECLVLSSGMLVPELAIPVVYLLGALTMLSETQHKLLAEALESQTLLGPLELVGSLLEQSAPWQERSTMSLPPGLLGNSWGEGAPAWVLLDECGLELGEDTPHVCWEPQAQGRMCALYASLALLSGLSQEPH
Put plainly: co-IP; HEK293T cells co-transfected with Myc-Synoviolin and Flag-GSDMD plasmids; lysed in RIPA buffer; immunoprecipitation with anti-Flag or control IgG, immunoblot with Myc. (A western blot detects proteins with antibodies after separation by electrophoresis.)

Chains of the proteins cited; added tags and fusions are not shown.
UniProt Q86TM6: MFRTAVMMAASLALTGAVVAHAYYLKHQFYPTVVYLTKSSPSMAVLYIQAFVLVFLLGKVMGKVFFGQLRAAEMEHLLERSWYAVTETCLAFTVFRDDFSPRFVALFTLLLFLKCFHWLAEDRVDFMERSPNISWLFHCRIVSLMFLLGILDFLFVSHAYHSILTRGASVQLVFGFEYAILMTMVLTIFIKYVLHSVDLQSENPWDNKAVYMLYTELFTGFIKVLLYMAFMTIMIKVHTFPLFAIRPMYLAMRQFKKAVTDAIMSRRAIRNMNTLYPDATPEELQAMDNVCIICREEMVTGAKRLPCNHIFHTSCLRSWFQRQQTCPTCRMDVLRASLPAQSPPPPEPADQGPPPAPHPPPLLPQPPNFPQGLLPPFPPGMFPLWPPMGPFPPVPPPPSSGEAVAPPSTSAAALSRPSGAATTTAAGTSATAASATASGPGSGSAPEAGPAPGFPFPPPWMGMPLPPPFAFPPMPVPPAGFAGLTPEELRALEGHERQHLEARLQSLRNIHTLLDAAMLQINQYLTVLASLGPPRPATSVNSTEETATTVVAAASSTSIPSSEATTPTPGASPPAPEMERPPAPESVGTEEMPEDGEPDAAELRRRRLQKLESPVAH

These are yes or no findings as the source states them, for the method shown. Binding seen in cells or lysates may run through a third protein. Some results given as binding are weak or reduced against the parent protein; the word gives no strength. Tags and fused reporters may be left off the sequences shown.

For “Myc-Synoviolin (from UniProt Q86TM6 1-617) (enzyme)”, the binding entry was “binds”.

For the origin of these results see article PMC10336677.
